Measured values: PMC4745749
No constants are given. Whether binding was seen depends on the method and setting. In cells and extracts the contact can be indirect. Some results given as binding are weak or reduced against the parent protein; the word gives no strength.

The chains behind the UniProt entries cited, without tags or fusion partners.
UniProt Q00987: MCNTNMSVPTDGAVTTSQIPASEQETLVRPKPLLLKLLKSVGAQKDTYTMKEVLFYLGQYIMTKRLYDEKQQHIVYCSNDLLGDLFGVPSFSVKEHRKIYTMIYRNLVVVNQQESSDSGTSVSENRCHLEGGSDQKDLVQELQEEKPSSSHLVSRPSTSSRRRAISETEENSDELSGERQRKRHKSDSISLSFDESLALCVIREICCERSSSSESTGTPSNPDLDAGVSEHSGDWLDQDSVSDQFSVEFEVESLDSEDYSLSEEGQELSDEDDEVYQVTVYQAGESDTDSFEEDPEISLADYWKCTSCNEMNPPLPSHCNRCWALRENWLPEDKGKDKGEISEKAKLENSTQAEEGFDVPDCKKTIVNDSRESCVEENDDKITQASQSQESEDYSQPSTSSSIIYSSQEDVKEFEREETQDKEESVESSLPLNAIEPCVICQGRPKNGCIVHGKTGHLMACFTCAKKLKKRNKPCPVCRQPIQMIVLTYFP
UniProt Q9Y294: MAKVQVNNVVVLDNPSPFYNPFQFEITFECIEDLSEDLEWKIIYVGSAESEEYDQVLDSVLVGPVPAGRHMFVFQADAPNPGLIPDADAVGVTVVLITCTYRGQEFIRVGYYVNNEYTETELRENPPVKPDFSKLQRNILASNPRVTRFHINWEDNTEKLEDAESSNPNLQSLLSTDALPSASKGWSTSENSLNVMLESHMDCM

Assays:
[1] = molecular target: MDM2 (human (endogenous in HL-7702)) (UniProt Q00987); assay: co-IP; endogenous co-IP from HL-7702 lysate with an anti-MDM2 antibody; blots with anti-ASF1A or anti-RAD6
[2] = molecular target: MDM2 (human (endogenous in HL-7702)) (UniProt Q00987); assay: co-IP; two-step co-IP from HL-7702 cells transfected with Myc-RAD6A and Myc-RAD6B: first IP anti-Myc, elution with Myc peptide (250 mM NaCl), second IP anti-MDM2 or control IgG; blots with anti-Myc, anti-MDM2, anti-ASF1A

binding [1]: binds
binding [2]: binds
Substance: ASF1A (anti-silencing function 1A) (from UniProt Q9Y294 1-204)
